# Laboratory results taken from PubChem BioAssay AID1347076 (National Center for Advancing Translational Sciences (NCATS), 2019).
# In all, about 400,000 compounds went through this assay and about 13,000 (3.2%) were called active. The inconclusive results got no clear call from the source; some entries with a clear call stand among them for comparison. The call rests on the fitted dose curve; in most records, active means well fitted cell-killing curve with a large enough effect; inconclusive means small, poorly fitted or top-dose-only effect, or effect the other way; inactive means flat fitted curve, though single readings scatter. Where the call is inconclusive, the potency comes from a doubtful curve fit.
# Assay: qHTS assay for MDR1-selective chemotherapeutics: Primary screen using the drug-selected MDR subline cells KB-V1; further: nearly all actives have a fitted effect of over 60% in size
# Details: KB-V1 MDR cells viability, CellTiter-Glo, 72 h; activity change, negative = cytotoxicity: at 46.1 µM (top of the series)
# Procedure, shortened: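 Luminescent ATP read-out (CellTiter-Glo, 10 min) measures survival of drug-selected KB-V1 MDR cells after 72 h, 37 degrees C compound exposure. Medium: phenol-red-free DMEM, 10% FBS. Values from fitted concentration-response curves.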
# On the % scale 0 is the no-effect control and ±100 the full control effect; potency means the concentration at half of the fitted maximal effect.
Structure (SMILES),"activity change, negative = cytotoxicity",Potency
CSCc1c(C(=O)NCCc2ccccn2)oc2ccccc12,inactive: -29.8%,–
CC12COC3(P(=O)(c4ccccc4)c4ccccc4)CC1CCC23CP(=O)(c1ccccc1)c1ccccc1 (stereo not given),–,"inconclusive: 32.6 µM [cytotoxic, partial curve, poor fit]"
Cc1ccn2c(Nc3ccc(C(C)C)cc3)c(-c3cccs3)nc2c1,inactive: -0.771%,–
COc1ccc(C2C=C(c3cccc(OC)c3)Nc3c(C(=O)Nc4ccccc4)cnn32)cc1 (stereo not given),inactive: -2.67%,–
COc1cc(C(=O)NCc2nnc(SCC(=O)N3CCCCCC3)o2)cc(OC)c1OC,inactive: 2.46%,–
Cc1onc(C(=O)N2C(C)CCCC2C)c1[N+](=O)[O-] (stereo not given),–,"inconclusive: 32.6 µM [rising, single point]"
CCN(CC)S(=O)(=O)c1cccc(C(=O)N/N=C(\C)c2cccs2)c1,–,"inconclusive: 32.6 µM [cytotoxic, partial curve, poor fit]"
OCCN1CCN(c2nc(-c3ccccc3O)nc3ccccc23)CC1,–,"inconclusive: 16.4 µM [cytotoxic, partial curve]"
O=C(c1cc(COc2ccc3ncccc3c2)on1)N1CCCCCC1,inactive: -55.3%,–
O=C(CC(=O)c1ccccc1)Nc1ccc([N+](=O)[O-])cc1,inconclusive: 7.03%,–
O=C(c1ccc2ccccc2n1)N1CCN(c2ccccn2)CC1,–,"inconclusive: 23.1 µM [cytotoxic, single point]"
Cc1cc2nc(/C=C/c3cccnc3)[nH]c2cc1C,–,active: 0.259 µM
CC(C)CC(COCc1ccc(C(F)(F)F)cc1)N1CCN(C(=O)c2ccc(C(F)(F)F)cc2)CCC1=O (stereo not given),–,"inconclusive: 20.6 µM [cytotoxic, single point]"
CC(NC(=O)c1ccccc1OC(F)F)c1ccc(-n2ccnc2)cc1 (stereo not given),–,"inconclusive: 23.1 µM [cytotoxic, single point]"
O=C(CSc1nc2ccsc2c(=O)n1Cc1ccccc1)NCC1CCCO1 (stereo not given),–,"inconclusive: 10.3 µM [cytotoxic, partial curve]"
O=C(CSCc1ccc(Cl)cc1)N/N=C/c1ccccc1,inactive: -16.3%,–
Cc1ccccc1N1CCN(Cc2cccc(C(=O)O)c2)CC1,inactive: -23.1%,–
O=C(CNC(=O)c1cccc(Br)c1)N/N=C/c1cccnc1,–,"inconclusive: 10.3 µM [rising, partial curve, poor fit]"
NC1=NC[C@H](Cc2ccccc2)N1CC1CCCCC1,–,"inconclusive: 23.1 µM [rising, single point]"
Cn1c(SCC(=O)Nc2ccc(C(=O)O)cc2)nc2scc(-c3ccccc3Cl)c2c1=O,inactive: 2.49%,–
CC(C)CN(CCCNC(=O)c1cc(=O)[nH]c2ccc(S(=O)(=O)N3CCCCCC3)cc12)CC(C)C,inactive: 27.2%,–
COc1ccc(CCNC(=O)CNS(=O)(=O)c2ccc(Cl)cc2)cc1,–,"inconclusive: 5.17 µM [cytotoxic, full curve]"
CCn1c(NCc2ccco2)nc2c1c(=O)n(C)c(=O)n2C,–,"inconclusive: 23.1 µM [cytotoxic, partial curve, poor fit]"

Structure (SMILES),"activity change, negative = cytotoxicity",Potency
CCOc1cc(S(=O)(=O)NCc2ccc(OC)cc2)c(OCC)cc1-n1cnnn1,–,active: 5.17 µM
O=C(NCc1ccco1)C1CC(c2ccc(C(F)(F)F)cc2)=NO1 (stereo not given),–,"inconclusive: 23.1 µM [cytotoxic, partial curve, poor fit]"
Cc1cccc(N2CCN(C(=O)C3CCN(S(=O)(=O)c4cccc5cccnc45)CC3)CC2C)c1 (stereo not given),inactive: -16.8%,–
Nc1ccc2c(c1)-c1ccc(F)cc1C2=O,–,"inconclusive: 2.59 µM [cytotoxic, partial curve, poor fit]"
N/C(=N\N=Cc1ccc2c(c1)OCO2)NN=Cc1ccc2c(c1)OCO2,–,"inconclusive: 8.2 µM [cytotoxic, partial curve]"
CC(C)Cn1c(SCC(=O)N2CCc3ccccc3C2)nc2cc(Cl)ccc2c1=O,–,"inconclusive: 9.2 µM [cytotoxic, partial curve]"
C=CCSc1nc(O)c(C2OC(=O)c3c2ccc(OC)c3OC)c(=O)n1-c1ccccc1 (stereo not given),–,"inconclusive: 29.1 µM [rising, single point]"
COc1ccc2[nH]c(O)c(NC(C)=O)c2c1,–,"inconclusive: 20.6 µM [rising, single point]"
COc1ccc(C2=NN(C3=NN=C(N)Cc4ncnn43)C(O)(C(F)(F)F)C2)cc1 (stereo not given),–,"inconclusive: 29.1 µM [rising, single point]"
COc1ccc(NC(=O)CC(c2ccccc2)c2ccco2)cc1 (stereo not given),–,"inconclusive: 25.9 µM [cytotoxic, single point]"
CC(C)N1C(=O)c2ccccc2NC(=O)C1C(=O)NCc1ccccc1 (stereo not given),inactive: -12.8%,–
O=C(NCc1ccc(F)cc1)c1ccc(CS(=O)(=O)c2ccc(Br)cc2)o1,–,active: 13 µM
Cc1cc(C)n(CCc2nc(-c3ccco3)cs2)n1,inactive: 6.54%,–
CCOc1cc(NS(=O)(=O)c2ccc(NC(C)=O)cc2)c(OCC)cc1NC(=O)C(C)C,–,"inconclusive: 16.4 µM [cytotoxic, single point]"
Clc1ccc(Cn2cc(/C=N/n3cnnc3)c3ccccc32)cc1,–,"inconclusive: 20.6 µM [cytotoxic, single point]"
Cc1ccc(S(=O)(=O)N2CCOCC2)cc1C(=O)Nc1nc2ccccc2[nH]1,inactive: 21.9%,–
CC(C)=C1C2CCC1C1C(=O)N(c3nc(-c4ccc(F)cc4)c(C)s3)C(=O)C21 (stereo not given),–,"inconclusive: 23.1 µM [cytotoxic, partial curve, poor fit]"
CN(C)CCNC(=O)C1CCN(c2nc3ccccc3[nH]2)CC1,inactive: 0.87%,–
O=C(O)CCc1nn2c3ccccc3n(CC(=O)c3cccs3)c2nc1=O,–,"inconclusive: 25.9 µM [rising, single point]"
O=C(N/N=C/c1ccc(C(=O)O)cc1)C(=O)N1CCCCCC1,–,"inconclusive: 23.1 µM [rising, single point]"
CSc1ccccc1NC(=O)c1cnc2sc(C)cn2c1=O,–,"inconclusive: 8.2 µM [cytotoxic, partial curve]"
Cc1onc(-c2ccccc2Cl)c1C(=O)OCC(=O)N1CCCc2ccccc21,–,"inconclusive: 13 µM [cytotoxic, partial curve]"

# In another format: entries from further up.
Structure (SMILES)	activity change, negative = cytotoxicity	Potency
Cc1onc(C(=O)N2C(C)CCCC2C)c1[N+](=O)[O-] (stereo not given)	–	inconclusive: 32.6 µM [rising, single point]
CCN(CC)S(=O)(=O)c1cccc(C(=O)N/N=C(\C)c2cccs2)c1	–	inconclusive: 32.6 µM [cytotoxic, partial curve, poor fit]
OCCN1CCN(c2nc(-c3ccccc3O)nc3ccccc23)CC1	–	inconclusive: 16.4 µM [cytotoxic, partial curve]
